Reference: PubChem BioAssay AID1259308 (NCATS, 2017)
The deposit covers about 59,000 reagents; below is a random part of them. About 1,510 of them (2.6%) were called active. 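Calls use total luciferase alone and ignore viability, so some active siRNAs may act by altering cell number.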 The numbers tell different reagents against one gene apart. Not all columns of the deposit are shown.

- Aim: 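Candidate targets for better recombinant protein yield in mammalian cells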 (primary screen)
- Cell system: human HEK293 embryonic kidney cells stably expressing firefly luciferase (HEK-CMV-Luc2-Hygro)
- Reagent: single siRNA against human genes, 0.8 pmol siRNA per well
- Duration: 72 h
- Measurement: 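Luciferase light (ONE-Glo) measured on one replicate plate set and viability (CellTiter-Glo) on the other, scaled to a negative control siRNA, with robust z-scores and luciferase per cell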
- Scale: total luciferase, z-score: higher = more reporter protein produced
- Hit rule: 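Active when the median/MAD z-score for overall luciferase is greater than 3; a gene was taken forward for validation with new siRNAs if at least two of its three siRNAs passed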
- Meaning of the calls: active = raised luciferase; inactive = no rise

TMEM158 #1 gave total luciferase, z-score 0.592; inactive. Silencing of TMEM158 #2 came out at: total luciferase, z-score -0.84; inactive. Silencing of TMEM158 #3 came out at: total luciferase, z-score 0.233; inactive. Depletion of TIGD1 #1 came out at: total luciferase, z-score 0.709; inactive. Knock-down of TIGD1 #2 gave: total luciferase, z-score -1.01; inactive. TIGD1 #3 scored total luciferase, z-score -1.02; inactive.

Knock-down of HTR5A #1 came out at: total luciferase, z-score -0.107; inactive. HTR5A #2 showed total luciferase, z-score -0.726; inactive. Against HTR5A #3, the entry reads total luciferase, z-score 0.87; inactive. With knock-down of CELF1 #1, the record shows total luciferase, z-score -0.12; inactive. After knock-down of CELF1 #2, the screen gave total luciferase, z-score -0.131; inactive. Depletion of CELF1 #3 came out at: total luciferase, z-score 0.475; inactive.

Depletion of LY6G6F #1 came out at: total luciferase, z-score 1.9; inactive. For LY6G6F #2 the deposit lists total luciferase, z-score 2.79; inactive. Knock-down of LY6G6F #3 came out at: total luciferase, z-score -0.47; inactive. For ZNF770 #1 the deposit lists total luciferase, z-score 0.738; inactive. Silencing of ZNF770 #2 gave: total luciferase, z-score 0.152; inactive. Against ZNF770 #3 the deposit lists total luciferase, z-score -0.776; inactive.

For SELENBP1 #1, the values are total luciferase, z-score 0.514; inactive. After knock-down of SELENBP1 #2, the record shows total luciferase, z-score 0.275; inactive. Depletion of SELENBP1 #3 came out at: total luciferase, z-score 0.331; inactive. For ZFHX4 #1, the entry reads total luciferase, z-score -1.02; inactive. Silencing of ZFHX4 #2 gave: total luciferase, z-score -1.32; inactive. After knock-down of ZFHX4 #3, the screen gave total luciferase, z-score 0; inactive.

After knock-down of KLHL32 #1, the screen gave total luciferase, z-score -0.563; inactive. Silencing of KLHL32 #2 gave: total luciferase, z-score 0.0106; inactive. Against KLHL32 #3 the deposit lists total luciferase, z-score -0.516; inactive. Knock-down of PCBP1-AS1 #1 gave: total luciferase, z-score 1.81; inactive. Against PCBP1-AS1 #2 the deposit lists total luciferase, z-score -1.14; inactive. Against PCBP1-AS1 #3, the values are total luciferase, z-score -1.55; inactive.

Against H3C3 #1, the entry reads total luciferase, z-score 1.2; inactive. Knock-down of H3C3 #2 resulted in: total luciferase, z-score 0.0219; inactive. Silencing of H3C3 #3 gave: total luciferase, z-score 0.109; inactive.

5 consecutive entries already listed:
ZFHX4 #3: total luciferase, z-score = 0; call = inactive
KLHL32 #1: total luciferase, z-score = -0.563; call = inactive
KLHL32 #2: total luciferase, z-score = 0.0106; call = inactive
KLHL32 #3: total luciferase, z-score = -0.516; call = inactive
PCBP1-AS1 #1: total luciferase, z-score = 1.81; call = inactive
